Source: publication PMC11598452
Results are given in words; binding and its absence hold for the method and conditions named. A result given as binding can be weak or reduced; the word gives no strength.

Biological target: T1, C1INH (human (endogenous in normal human serum)) (UniProt P05155)
T1 sequence: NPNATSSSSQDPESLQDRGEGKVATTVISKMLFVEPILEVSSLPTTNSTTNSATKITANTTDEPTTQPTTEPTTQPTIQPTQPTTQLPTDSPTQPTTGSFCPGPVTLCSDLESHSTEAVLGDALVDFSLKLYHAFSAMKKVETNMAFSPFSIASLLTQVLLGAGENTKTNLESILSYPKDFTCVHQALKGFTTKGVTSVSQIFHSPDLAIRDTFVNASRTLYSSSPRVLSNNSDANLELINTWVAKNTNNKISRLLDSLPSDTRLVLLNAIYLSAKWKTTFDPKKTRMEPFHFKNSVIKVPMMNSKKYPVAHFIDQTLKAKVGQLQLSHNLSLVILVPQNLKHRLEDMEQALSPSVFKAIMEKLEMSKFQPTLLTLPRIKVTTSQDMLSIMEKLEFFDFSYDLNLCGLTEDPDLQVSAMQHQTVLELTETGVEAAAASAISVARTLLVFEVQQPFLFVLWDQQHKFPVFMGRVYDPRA
Experiment: ELISA; MASP-1/C1-INH ELISA kit (HycultBiotech) detecting the complex in normal human serum exposed to vehicle or AmV (10-1000 µg/mL, 30-120 min, 37°C), reactions stopped with 20 mM EDTA, serum diluted 1/100

binding: binds
Substance: MBL-associated serine protease 1 (MASP1) (human (endogenous in normal human serum)) (enzyme)
